Measured values as given in patent publication US20230102192A1, “THERAPIES FOR THE TREATMENT OF DISEASES AND DISORDERS ASSOCIATED WITH ABNORMAL EXPRESSION OF A NEURAL-ASSOCIATED GENE” (The Regents of the University of California, priority 2020, published 2023).
At least one compound was matched to its structure with a doubt left.

Test system: MECP2-KO neurons
Experiment: Co-localized pre/postsynaptic puncta quantification in neurons
Type: cell-based, human
Method: Pharmacologic treatment. One-month old cortical organoids were treated for 1 mo with either Nefiracetam (10 μM) or PHA 543613 (10 μM) during media changes.
Synaptic puncta quantification. Co-localized pre and postsynaptic puncta (Vglut and Homer1 immunostained) along MAP2-positive processes were quantified. Primary antibodies (see above) incubated 2 h, secondary antibodies incubated 1 h, and coverslips were mounted. Slides were analyzed under fluorescence microscopy.
Pharmacologic screening identifies two compounds that specifically reverse MECP2-KO phenotypes. 14 commercially available pharmacologic compounds with mechanisms of action that counteract the synapse and neurotransmitter pathologies were selected and which are identified in FIG. 5B. […] MECP2-KO and control neurons were treated with each of the 14 compounds and employed a tiered series of assays to identify those that could selectively rescue MECP2-KO pathology without affecting controls. […] The capacity of these compounds to increase pre and post co-localized synaptic puncta in MECP2-KO neurons were evaluated, again eliminating the drugs that affected control neurons (see FIG. 5F-G, and FIG. 6C-D).

In the case of `C[N+](C)(C)CCOC(N)=O` [Carbamoylcholine], the “effect on synaptic puncta, 95% CI” value (MECP2-KO neurons treated two weeks, 95% CI) is reported as −9.619, −0.1306 and the “synaptogenesis / co-localized synaptic puncta” value (one-month old MECP2-KO neurons treated two weeks) is reported as “specifically increased synaptogenesis”.
